Assay results as given in publication PMC11868815.
Results are given in words; binding and its absence hold for the method and conditions named. In cells and extracts the contact can be indirect.

Biological target: ATPase Na+/K+ Transporting Subunit Beta 3 (ATP1B3) (human (endogenous in U87MG and U251MG)) (UniProt P54709)
Assay: co-IP; lysates of U87MG and U251MG cells; supernatant treated 1.5 h at 4°C with 2 μg of ATP1B3 and PPP1CA antibodies, then protein A/G agarose beads 1.5 h; detection by Western blotting

binding: no binding
Substance: Protein Phosphatase 1 Catalytic Subunit Alpha (PPP1CA) (from UniProt P62136 1-330)
